Test results from publication doi:10.1101/2023.12.22.573053.
These are yes or no findings as the source states them, for the method shown. Binding seen in cells or lysates may run through a third protein. These calls come from enrichment with a bait or labelling near it, and not all partners need be listed. Tags and fused reporters may be left off the sequences shown.

Biological target: T1, SNRNP35 (ProteinA-TEV-3×HA-tagged) (human) (UniProt Q16560)
T1 sequence: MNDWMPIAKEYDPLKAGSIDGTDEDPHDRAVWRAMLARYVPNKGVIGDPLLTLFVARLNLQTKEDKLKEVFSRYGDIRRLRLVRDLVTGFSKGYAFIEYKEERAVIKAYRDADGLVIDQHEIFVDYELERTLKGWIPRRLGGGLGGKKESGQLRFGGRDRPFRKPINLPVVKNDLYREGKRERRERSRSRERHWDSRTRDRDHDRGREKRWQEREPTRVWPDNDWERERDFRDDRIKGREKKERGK
Assay: affinity purification with mass spectrometry

Binder	binding
SNRNP25 (protein, UniProt Q9BV90 1-132) MDVFQEGLAMVVQDPLLCDLPIQVTLEEVNSQIALEYGQAMTVRVCKMDGEVMPVVVVQSATVLDLKKAIQRYVQLKQEREGGIQHISWSYVWRTYHLTSAGEKLTEDRKKLRDYGIRNRDEVSFIKKLRQK	binds
PDCD7 (protein, UniProt Q8N8D1 1-485) MALPPFFGQGRPGPPPPQPPPPAPFGCPPPPLPSPAFPPPLPQRPGPFPGASAPFLQPPLALQPRASAEASRGGGGAGAFYPVPPPPLPPPPPQCRPFPGTDAGERPRPPPPGPGPPWSPRWPEAPPPPADVLGDAALQRLRDRQWLEAVFGTPRRAGCPVPQRTHAGPSLGEVRARLLRALRLVRRLRGLSQALREAEADGAAWVLLYSQTAPLRAELAERLQPLTQAAYVGEARRRLERVRRRRLRLRERAREREAEREAEAARAVEREQEIDRWRVKCVQEVEEKKREQELKAAADGVLSEVRKKQADTKRMVDILRALEKLRKLRKEAAARKGVCPPASADETFTHHLQRLRKLIKKRSELYEAEERALRVMLEGEQEEERKRELEKKQRKEKEKILLQKREIESKLFGDPDEFPLAHLLEPFRQYYLQAEHSLPALIQIRHDWDQYLVPSDHPKGNFVPQGWVLPPLPSNDIWATAVKLH	binds
SNRNP48 (protein, UniProt Q6IEG0 1-339) MEGEPPPVEERRRLQEELNEFVESGCRTLEEVTASLGWDLDSLDPGEEEAAEDEVVICPYDSNHHMPKSSLAKHMASCRLRKMGYTKEEEDEMYNPEFFYENVKIPSITLNKDSQFQIIKQARTAVGKDSDCYNQRIYSSLPVEVPLNHKRFVCDLTQADRLALYDFVVEETKKKRSDSQIIENDSDLFVDLAAKINQDNSRKSPKSYLEILAEVRDYKRRRQSYRAKNVHITKKSYTEVIRDVINVHMEELSNHWQEEQEKAEDDAEKNEERRSASVDSRQSGGSYLDAECSRHRRDRSRSPHKRKRNKDKDKNCESRRRKERDGERHHSHKRRKQKI	binds
ZMAT5 (protein, UniProt Q9UDW3 1-170) MGKRYFCDYCDRSFQDNLHNRKKHLNGLQHLKAKKVWYDMFRDAAAILLDEQNKRPCRKFLLTGQCDFGSNCRFSHMSERDLQELSIQVEEERRAREWLLDAPELPEGHLEDWLEKRAKRLSSAPSSRAEPIRTTVFQYPVGWPPVQELPPSLRAPPPGGWPLQPRVQWG	binds
RNPC3 (protein, UniProt Q96LT9 1-517) MAAPEQPLAISRGCTSSSSLSPPRGDRTLLVRHLPAELTAEEKEDLLKYFGAQSVRVLSDKGRLKHTAFATFPNEKAAIKALTRLHQLKLLGHTLVVEFAKEQDRVHSPCPTSGSEKKKRSDDPVEDDKEKKELGYLTVENGIAPNHGLTFPLNSCLKYMYPPPSSTILANIVNALASVPKFYVQVLHLMNKMNLPTPFGPITARPPMYEDYMPLHAPLPPTSPQPPEEPPLPDEDEELSSEESEYESTDDEDRQRMNKLMELANLQPKRPKTIKQRHVRKKRKIKDMLNTPLCPSHSSLHPVLLPSDVFDQPQPVGNKRIEFHISTDMPAAFKKDLEKEQNCEEKNHDLPATEVDASNIGFGKIFPKPNLDITEEIKEDSDEMPSECISRRELEKGRISREEMETLSVFRSYEPGEPNCRIYVKNLAKHVQEKDLKYIFGRYVDFSSETQRIMFDIRLMKEGRMKGQAFIGLPNEKAAAKALKEANGYVLFGKPMVVQFARSARPKQDPKEGKRKC	binds
